Measurements: PMC4331003
Results are given in words; binding and its absence hold for the method and conditions named. Some results given as binding are weak or reduced against the parent protein; the word gives no strength.

What was measured:
[1] = target: NocNΔ10, N-terminally truncated Noc variant lacking the first 10 amino acids (Bacillus subtilis) (UniProt P37524); experiment: SEC; size-exclusion chromatography of the purified protein in solution (Supplementary Fig S3); conditions not shown; both purified
[2] = target: Nucleoid occlusion protein Noc (Bacillus subtilis), full-length (Bacillus subtilis) (UniProt P37524); experiment: as above

Row | Binder | binding [1] | binding [2]
1 | NocNΔ10, N-terminally truncated Noc variant lacking the first 10 amino acids (domain or fragment, UniProt P37524 11-283) LGEKEQEPEIAEHDTNKEEILEIPVNAIVPNRFQPRTIFSDEKIKELAMTIHTHGIIQPIVVRHTEEEGQYELIAGERRWRAVQSLEWEKIPAIIKDFSDTETASVALIENLQREELSSIEEAHAYARLLELHDLTQEALAQRLGKGQSTIANKLRLLKLPQPVQEAIMEKKITERHARALIPLKQPELQVTLLTEIIEKSLNVKQTEDRVVKMLEQGQRKPKPRRKAFSRDTRIAMNTIRQSLSMVEDSGVKLNTEEEEFEEYIQLTIRIPK | binds | –
2 | Nucleoid occlusion protein Noc (Bacillus subtilis), full-length (protein, UniProt P37524 1-283) MKHSFSRFFGLGEKEQEPEIAEHDTNKEEILEIPVNAIVPNRFQPRTIFSDEKIKELAMTIHTHGIIQPIVVRHTEEEGQYELIAGERRWRAVQSLEWEKIPAIIKDFSDTETASVALIENLQREELSSIEEAHAYARLLELHDLTQEALAQRLGKGQSTIANKLRLLKLPQPVQEAIMEKKITERHARALIPLKQPELQVTLLTEIIEKSLNVKQTEDRVVKMLEQGQRKPKPRRKAFSRDTRIAMNTIRQSLSMVEDSGVKLNTEEEEFEEYIQLTIRIPK | – | binds
